According to the supplement of paper PMC12819154, “High-throughput peptide-centric local stability assay extends protein–ligand identification to membrane proteins, tissues and bacteria” (Nature Structural & Molecular Biology, 2025):
The list shows a part of the results. Most entries show no effect beyond the scatter of the controls.

The chains behind the UniProt entries cited, without tags or fusion partners. Where a name states a change or a piece, a line headed by the entry shows the natural chain unless it says otherwise.
UniProt Q9WVL0: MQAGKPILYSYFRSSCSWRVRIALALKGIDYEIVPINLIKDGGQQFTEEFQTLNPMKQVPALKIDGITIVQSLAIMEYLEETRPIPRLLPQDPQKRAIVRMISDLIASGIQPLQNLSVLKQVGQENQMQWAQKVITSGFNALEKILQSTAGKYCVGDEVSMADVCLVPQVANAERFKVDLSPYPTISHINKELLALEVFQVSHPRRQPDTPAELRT
UniProt Q9Z2C5: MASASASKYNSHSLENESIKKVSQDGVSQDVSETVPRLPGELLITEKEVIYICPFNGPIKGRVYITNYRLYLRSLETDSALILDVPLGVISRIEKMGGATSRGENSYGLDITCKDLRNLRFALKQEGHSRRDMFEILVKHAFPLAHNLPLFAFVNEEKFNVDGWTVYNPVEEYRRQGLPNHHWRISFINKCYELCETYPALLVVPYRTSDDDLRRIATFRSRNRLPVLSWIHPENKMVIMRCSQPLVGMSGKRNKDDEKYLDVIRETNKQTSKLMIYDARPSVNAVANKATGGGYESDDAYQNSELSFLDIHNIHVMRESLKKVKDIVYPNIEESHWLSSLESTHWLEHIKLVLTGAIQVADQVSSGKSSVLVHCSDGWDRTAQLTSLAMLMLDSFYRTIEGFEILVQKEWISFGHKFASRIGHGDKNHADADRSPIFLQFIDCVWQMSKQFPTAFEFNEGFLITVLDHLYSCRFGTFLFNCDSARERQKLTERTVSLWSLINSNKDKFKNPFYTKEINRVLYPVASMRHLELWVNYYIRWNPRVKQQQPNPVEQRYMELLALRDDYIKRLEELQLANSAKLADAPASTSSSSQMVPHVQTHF
UniProt Q9Z2H5, whole entry: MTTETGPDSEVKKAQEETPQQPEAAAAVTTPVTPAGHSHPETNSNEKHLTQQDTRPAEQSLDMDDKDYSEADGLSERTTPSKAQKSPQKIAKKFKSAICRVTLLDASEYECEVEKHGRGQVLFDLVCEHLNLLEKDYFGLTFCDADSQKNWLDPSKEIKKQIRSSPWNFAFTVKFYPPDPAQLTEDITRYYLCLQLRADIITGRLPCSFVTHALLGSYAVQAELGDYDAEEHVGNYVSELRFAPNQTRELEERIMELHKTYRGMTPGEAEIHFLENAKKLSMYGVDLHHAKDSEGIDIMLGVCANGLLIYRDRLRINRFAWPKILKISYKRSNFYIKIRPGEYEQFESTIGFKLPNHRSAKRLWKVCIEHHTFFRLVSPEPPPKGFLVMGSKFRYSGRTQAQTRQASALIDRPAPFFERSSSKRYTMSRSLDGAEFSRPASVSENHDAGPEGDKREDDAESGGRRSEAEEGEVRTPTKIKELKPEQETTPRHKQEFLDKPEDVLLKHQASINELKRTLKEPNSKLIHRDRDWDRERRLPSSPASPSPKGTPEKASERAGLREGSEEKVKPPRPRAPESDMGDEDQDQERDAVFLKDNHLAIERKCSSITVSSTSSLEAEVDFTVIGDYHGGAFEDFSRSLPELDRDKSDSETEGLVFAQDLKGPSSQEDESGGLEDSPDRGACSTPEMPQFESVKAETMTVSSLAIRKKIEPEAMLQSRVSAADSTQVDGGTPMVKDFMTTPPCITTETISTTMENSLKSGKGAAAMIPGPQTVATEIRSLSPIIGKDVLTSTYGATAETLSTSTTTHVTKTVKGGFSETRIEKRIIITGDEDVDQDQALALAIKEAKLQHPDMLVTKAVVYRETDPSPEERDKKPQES

Compound: CN[C@@H]1C[C@H]2O[C@@](C)([C@@H]1OC)n1c3ccccc3c3c4c(c5c6ccccc6n2c5c31)C(=O)NC4 [staurosporine]
Test: log2 fold change of tryptic peptide abundance, ligand vs vehicle (limited proteolysis) (log2 ratio); higher = more trypsin-susceptible (destabilized)
Settings: ligand concentration: 20 uM; sample: mouse liver crude lysate; replicate design: treated separately

| Target | log2 fold change |
| --- | --- |
| UniProt Q9WVL0 (peptide sequence: RQPDTPAELR, peptide start residue: 206) | 0.113 |
| UniProt Q9Z2C5 (peptide sequence: YMELLALRDDYIKR, peptide start residue: 557) | 0.317 |
| UniProt Q9Z2H5 (peptide sequence: DNHLAIER, peptide start residue: 596) | -0.716 |
